{"source": "patent US20030036504", "about": "(published 2003)", "experiment": "Fmoc solid-phase peptide synthesis; 4-(2′-4′-dimethoxyphenyl)-Fmoc aminomethyl phenoxy acetamide norleucine MBHA resin; HBTU (Fast Moc)", "details": "whole synthesis, analytical RP-HPLC, C-18 column"}
{"substance": "Ala Gly Glu Gly Thr Phe Thr Ser Asp Leu Ser Lys Gln Leu Glu Glu Glu Ala Val Arg Leu Phe Ile Glu Phe Leu Lys Asn-NH2", "values": [{"measurement": "crude purity (method not given)", "value": "about 75%"}]}
